Results are given in words; binding and its absence hold for the method and conditions named. Some entries that bind do so weakly or less than the wild type.
B1: ILC292 (peptide)
peptide: QIVECWTEMDWHHCVLFF
B2: ILC249 (peptide)
peptide: SDEEWTCFPYLCSEWLQ
B3: ILC254 (peptide)
peptide: SQEEWTCFPYLCRILVD
B4: ILC231 (peptide)
peptide: SEEEWTCFPYLCTQLLH
B5: ILC226 (peptide)
peptide: SDEEWTCFPSLCSFWLD
B6: ILC241 (peptide)
peptide: SQEEWTCFPYLCSDWLQ
B7: ILC285 (peptide)
peptide: WGCLCQQQGHFMECEITW
B8: ILC244 (peptide)
peptide: SHEEWTCFPYLCTYWLQ
B9: ILC263 (peptide)
peptide: SHEEWTCFPYLCSFWAE
B10: ILC277 (peptide)
peptide: SQDEWTCFPSLCSDLSE
B11: ILC239 (peptide)
peptide: SEEEWTCFPYLCTNLVE
B12: ILC284 (peptide)
peptide: SDISCSYIDGWYQCLLHL
B13: ILC227 (peptide)
peptide: SQEEWTCFPYLCTDWVQ
B14: ILC229 (peptide)
peptide: SEEEWTCFPYLCSKLLH
B15: ILC232 (peptide)
peptide: SDEDWTCFPYLCRILLE
B16: ILC287 (peptide)
peptide: NSSFCYIHAIEWVCESSS
B17: ILC243 (peptide)
peptide: SDEEWTCVPSLCAKLADGQAGQAAAGGSHEEWTCFAYLCGLLAD
B18: ILC260 (peptide)
peptide: SACEEAFAAYLEDGLM
B19: ILC274 (peptide)
peptide: SHEEWTCFPYLCSFWLE
B20: ILC228 (peptide)
peptide: SEEEWTCFPYLCSILVD
B21: ILC237 (peptide)
peptide: SEEEWTCFPSLCGVWAE
B22: ILC276 (peptide)
peptide: SHEEWTCFPYLCNLLSH
B23: ILC248 (peptide)
peptide: SEEEWTCFPYLCSQWLH
B24: ILC262 (peptide)
peptide: SEEEWTCFPSLCSNLVQ
B25: ILC242 (peptide)
peptide: SDEEWTCFPYLCSYWLQ
B26: ILC238 (peptide)
peptide: SHEEWTCFPYLCTVWAE
B27: ILC236 (peptide)
peptide: SEEEWTCFPYLCRELLE
B28: ILC280 (peptide)
peptide: SEEEWTCFPYLCSFWLQ
B29: ILC240 (peptide)
peptide: SQEEWTCFPYLCSKWVD
B30: ILC269 (peptide)
peptide: SEEEWTCFPYLCTYWVD
B31: ILC234 (peptide)
peptide: SDEEWTCFPYLCSFWAQ
B32: ILC257 (peptide)
peptide: SHEEWTCFPYLCSYLLE
B33: ILC264 (peptide)
peptide: SHEEWTCFPSLCTLWSH
B34: ILC281 (peptide)
peptide: SEEEWTCFPYLCSLWLE
B35: ILC250 (peptide)
peptide: SACEEAFAAYLEDSAV
B36: ILC230 (peptide)
peptide: SEEEWTCFPYLCGKWLQ
B37: ILC288 (peptide)
peptide: DLLYCEWEMVVRECHGTIGQ
B38: ILC286 (peptide)
peptide: ESLLCIQHDVWVDCYIVE
B39: ILC233 (peptide)
peptide: SQEEWTCFPSLCSDWVQ
B40: ILC282 (peptide)
peptide: SHEEWTCFPYLCSYWLE
B41: ILC258 (peptide)
peptide: SEEEWTCFPSLCKILLQ
B42: ILC247 (peptide)
peptide: SEEEWTCFPYLCSEWAQ
B43: ILC253 (peptide)
peptide: SDEEWTCFPYLCEYWLQ
B44: ILC259 (peptide)
peptide: SEEEWTCFPYLCSKWVE
B45: ILC265 (peptide)
peptide: SEEEWTCFPYLCSKWLD
B46: ILC283 (peptide)
peptide: FMVHCTWYDVTIDCVGPT
B47: ILC275 (peptide)
peptide: SDEEWTCFPYLCTDWLH
B48: ILC270 (peptide)
peptide: SDEEWTCFPYLCDYWLH
B49: VGF19 (peptide)
peptide: SCWFKIPWWLCP
B50: VGF13 (peptide)
peptide: MCWLVPGPMICH
B51: VGF1 (peptide)
peptide: WCWVPGPIQCY
B52: VGF11 (peptide)
peptide: FYQWFEEQLM
B53: VGF27 (peptide)
peptide: TCWKPTPWWLCA
B54: VGF3 (peptide)
peptide: TCTWVMPWWFCE
B55: VGF21 (peptide)
peptide: YCFWIPPEWYCV
B56: VGF2 (peptide)
peptide: CMWEMPWWFCQ
B57: VGF17 (peptide)
peptide: MCWTPVPWWLCL
B58: VGF20 (peptide)
peptide: YCQPMWWNMACW
B59: VGF8 (peptide)
peptide: ECRWVMPWWFCE
B60: VGF25 (peptide)
peptide: TCWKPAPWWLCA
B61: VGF6 (peptide)
peptide: GDWEWVWDWCF
B62: VGF15 (peptide)
peptide: HCWWLYTWDPCI
B63: VGF9 (peptide)
peptide: ACWKAMPWWFCT
B64: VGF23 (peptide)
peptide: GCWEWRPHWLCV
B65: VGF16 (peptide)
peptide: HCYVYVPWWLCP
B66: VGF10 (peptide)
peptide: FCMVQVPWWLCK
B67: VGF29 (peptide)
peptide: KCNFNPWKAACG
B68: VGF4 (peptide)
peptide: ICLWQMPWWFCE
B69: VGF14 (peptide)
peptide: FCMYKPLMFLCP
B70: VGF18 (peptide)
peptide: TCWKPTPWWLCD
B71: VGF24 (peptide)
peptide: ECTWTMPWWFC

Chains of the proteins cited; added tags and fusions are not shown. Lines headed by an entry give the natural chain unless they say otherwise; changes in a name come on top. A line that says so, or that is headed by a name, gives the form on record, which may keep a tag or linker. Residues count along the entry.
UniProt P08887, residues 20-358: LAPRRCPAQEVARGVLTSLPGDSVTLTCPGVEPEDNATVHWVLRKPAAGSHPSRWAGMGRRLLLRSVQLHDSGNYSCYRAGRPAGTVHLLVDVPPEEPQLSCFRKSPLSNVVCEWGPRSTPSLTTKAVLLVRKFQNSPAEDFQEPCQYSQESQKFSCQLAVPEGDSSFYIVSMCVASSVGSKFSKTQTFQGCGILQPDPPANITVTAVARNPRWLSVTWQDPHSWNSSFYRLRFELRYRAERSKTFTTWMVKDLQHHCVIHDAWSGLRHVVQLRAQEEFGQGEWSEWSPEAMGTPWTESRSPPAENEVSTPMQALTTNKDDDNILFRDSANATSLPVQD
VEGF (P15692, form named): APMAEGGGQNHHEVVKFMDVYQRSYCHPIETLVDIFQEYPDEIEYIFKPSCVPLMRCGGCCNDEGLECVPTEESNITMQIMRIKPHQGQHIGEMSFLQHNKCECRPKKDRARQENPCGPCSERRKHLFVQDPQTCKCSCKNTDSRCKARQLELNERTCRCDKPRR

Biological target: IL6R (UniProt P08887)
Assay: peptide selection, Example 48

binding	Binder
binds	B1
binds	B2
binds	B3
binds	B4
binds	B5
binds	B6
binds	B7
binds	B8
binds	B9
binds	B10
binds	B11
binds	B12
binds	B13
binds	B14
binds	B15
binds	B16
binds	B17
binds	B18
binds	B19
binds	B20
binds	B21
binds	B22
binds	B23
binds	B24

binding	Binder
binds	B25
binds	B26
binds	B27
binds	B28
binds	B29
binds	B30
binds	B31
binds	B32
binds	B33
binds	B34
binds	B35
binds	B36
binds	B37
binds	B38
binds	B39
binds	B40
binds	B41
binds	B42
binds	B43
binds	B44
binds	B45
binds	B46
binds	B47
binds	B48

Biological target: VEGF (UniProt P15692)
Assay: MRD identification, Example 48

binding	Binder
binds	B49
binds	B50
binds	B51
binds	B52
binds	B53
binds	B54
binds	B55
binds	B56
binds	B57
binds	B58
binds	B59
binds	B60
binds	B61
binds	B62
binds	B63
binds	B64
binds	B65
binds	B66
binds	B67
binds	B68
binds	B69
binds	B70
binds	B71
